Results are given in words; binding and its absence hold for the method and conditions named. Some binding calls cover weakened binding; strength is not graded here.
Columns and labels:
[1] = target: Major royal jelly protein 1 (MRJP1) (Apis merifera (so in the source); Apis mellifera)) (UniProt O18330); test: SEC; Superose 12 size-exclusion HPLC in PBS; MRJP1 oligomer heated at 56°C for 30 min; both purified
[2] = target: Major royal jelly protein 1 (MRJP1) (Apis merifera (so in the source); Apis mellifera)) (UniProt O18330); test: native gel or EMSA; Blue native-PAGE, 4-16% bis-Tris gel, 5 ug protein, CBB staining; unheated MRJP1 oligomer; both purified
[3] = target: Major royal jelly protein 1 (MRJP1) (Apis merifera (so in the source); Apis mellifera)) (UniProt O18330); test: SEC; Sephacryl S-200 size-exclusion HPLC in phosphate buffer saline (150 mM NaCl, pH 7.4); unheated MRJP1 oligomer from royal jelly; both purified

Measured: binding

B1: Major royal jelly protein 1 (MRJP1) (protein, UniProt O18330 20-432)
chain: NILRGESLNKSLPILHEWKFFDYDFGSDERRQDAILSGEYDYKNNYPSDIDQWHDKIFVTMLRYNGVPSSLNVISKKVGDGGPLLQPYPDWSFAKYDDCSGIVSASKLAIDKCDRLWVLDSGLVNNTQPMCSPKLLTFDLTTSQLLKQVEIPHDVAVNATTGKGRLSSLAVQSLDCNTNSDTMVYIADEKGEGLIVYHNSDDSFHRLTSNTFDYDPKFTKMTIDGESYTAQDGISGMALSPMTNNLYYSPVASTSLYYVNTEQFRTSDYQQNDIHYEGVQNILDTQSSAKVVSKSGVLFFGLVGDSALGCWNEHRTLERHNIRTVAQSDETLQMIASMKIKEALPHVPIFDRYINREYILVLSNKMQKMVNNDFNFDDVNFRIMNANVNELILNTRCENPDNDRTPFKISIHL
binds: all assays above
